Experimental data: PubChem BioAssay AID504764 (Drosophila RNAi Screening Center, 2011)
Test: 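Genes whose knock-down alters Notch-dependent transcription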 (primary screen). Cell system: Drosophila Kc167 cells. Reagent: long dsRNA against Drosophila genes. Duration: about 5 days (4 days dsRNA, then 24 h after transfection). Treatment: transfection of constitutively active membrane-tethered Notch lacking the extracellular domain, read 24 h later. Read-out: 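Firefly luciferase from an E(spl)m3 reporter with active Notch, plus control-promoter and uninduced reporter wells for normalisation; unnormalised counts, duplicate wells a and b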. Scale: induced reporter light, run 1, well a and induced reporter light, run 1, well b: higher = more light from the Notch target reporter with active Notch; control promoter light, run 1, well a and control promoter light, run 1, well b: higher = more light from the viral control promoter (cell number, transfection, viability); uninduced reporter light, run 1, well a: higher = more light from the Notch target reporter without active Notch. Call rule: 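Wells with low control signal or poorly matching duplicates excluded; duplicates averaged; per source plate, z beyond ±2 for induced/control log2 ratio or beyond ±1.8 for induced/uninduced marks a hit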. Meaning of the calls: active = modifier hit (raised or lowered Notch signal); inactive = not a hit.
The deposit covers about 22,000 reagents; this is a random part of those that have a named target and a result. Over the whole deposit, 403 (1.9%) were called active. 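Unnormalised raw counts per well; ratio z-scores behind the hit calls and whether each hit raises or lowers signal are not deposited.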 Names joined by + are all predicted targets of the reagent. The record does not give: the amount of reagent.

predicted target	DRSC id	induced reporter light, run 1, well a	induced reporter light, run 1, well b	control promoter light, run 1, well a	control promoter light, run 1, well b	uninduced reporter light, run 1, well a	Outcome
CG34022 (retired record)	DRSC07949	1.60e5	1.40e5	2.09e5	2.10e5	8040	inactive
CG1136	DRSC08184	1.23e5	1.01e5	91650	24825	13370	inactive
CG9175	DRSC03153	2.19e5	2.24e5	2.47e5	2.15e5	18545	inactive
CG7194	DRSC10784	1.69e5	1.39e5	1.59e5	1.79e5	4905	inactive
yellow-c + CIAPIN1	DRSC01898	1.43e5	1.44e5	1.28e5	1.42e5	12020	inactive
Cyp316a1 (Cytochrome P450 316a1)	DRSC11130	1.43e5	1.68e5	1.68e5	1.47e5	8065	inactive
SkpF + CG5357 (retired record)	DRSC04120	1.96e5	1.66e5	1.86e5	1.82e5	11920	inactive
Trpml + CG42638	DRSC11032	1.01e5	78385	69415	74725	7850	inactive
CG3581	DRSC15499	1.72e5	1.46e5	1.80e5	1.47e5	12550	inactive
CG10237	DRSC02029	2.20e5	2.49e5	1.62e5	2.13e5	15945	inactive
CG13634	DRSC14635	1.39e5	2.19e5	1.97e5	1.56e5	14115	inactive
Vps13B (Vacuolar protein sorting 13B)	DRSC15060	1.52e5	1.39e5	1.82e5	1.50e5	9900	inactive
Mtpbeta (Mitochondrial trifunctional protein beta subunit)	DRSC04663	1.97e5	2.30e5	1.64e5	1.61e5	12940	inactive
Pde8 (Phosphodiesterase 8)	DRSC04503	68335	59060	50845	59575	4425	inactive
Su(z)2 (Suppressor of zeste 2)	DRSC07558	9735	7175	11035	6805	2620	inactive
Slik (Sterile20-like kinase)	DRSC04471	1.20e5	1.56e5	1.02e5	1.29e5	8780	inactive
Not1	DRSC06787	61285	71715	1.02e5	1.10e5	6270	active
Not1	DRSC06794	49670	45910	60460	64545	4770	inactive
kune (kune-kune)	DRSC04860	1.45e5	1.36e5	1.62e5	1.49e5	9825	inactive
CG9173	DRSC08635	91470	1.05e5	1.58e5	1.23e5	6300	inactive
CG9254	DRSC01969	1.55e5	1.70e5	1.49e5	1.63e5	13305	inactive
CG11068	DRSC19369	1.03e5	75645	1.41e5	1.10e5	11785	inactive
APP-BP1 (beta-Amyloid precursor protein binding protein 1)	DRSC10920	1.62e5	1.07e5	1.87e5	1.86e5	6575	inactive
Cisd2 (CDGSH iron sulfur domain 2)	DRSC14904	1.42e5	1.59e5	2.02e5	1.97e5	13482	inactive
stl (stall)	DRSC04396	2.01e5	1.67e5	1.49e5	1.44e5	11755	inactive
ppk25 (pickpocket 25)	DRSC04973	2.13e5	1.89e5	2.25e5	2.17e5	15420	inactive
Charon	DRSC00679	1.79e5	1.92e5	1.83e5	2.03e5	16050	inactive
CG4860	DRSC15664	1.45e5	1.33e5	1.02e5	1.14e5	10620	inactive
eIF6 (eukaryotic translation initiation factor 6)	DRSC04674	2.08e5	1.78e5	1.82e5	1.58e5	16420	inactive
Tapdelta (Translocon-associated protein delta)	DRSC05946	1.36e5	1.48e5	1.14e5	1.15e5	12925	inactive
Cpr (Cytochrome P450 reductase)	DRSC03293	74805	61675	60575	56275	5005	inactive
alpha-Est2 (alpha-Esterase-2)	DRSC12614	60715	78745	53555	55425	5315	inactive
Nbr (Nibbler)	DRSC03166	2.48e5	2.16e5	1.97e5	1.68e5	19640	inactive
Nepl9 (Neprilysin-like 9)	DRSC02255	1.80e5	1.76e5	1.79e5	2.05e5	14450	inactive
CR46300 (pseudo)	DRSC12467	1.69e5	1.92e5	1.94e5	2.47e5	16838	inactive
Gr58b (Gustatory receptor 58b)	DRSC04140	40835	43245	43170	30070	2540	inactive
Ance-3	DRSC02648	1.54e5	1.93e5	1.88e5	1.74e5	16065	inactive
Ance-3	DRSC02649	1.38e5	1.57e5	1.68e5	1.78e5	13670	inactive
CG7966	DRSC16356	1.65e5	1.25e5	88585	83080	11405	inactive
CG10909	DRSC14282	6455	8225	10592	8530	515	inactive
dob (doppelganger von brummer)	DRSC19948	2.06e5	1.90e5	2.30e5	2.34e5	12350	inactive
GstD5 (Glutathione S transferase D5)	DRSC16686	27230	30970	26920	21450	1325	inactive
Edg84A (Ecdysone-dependent gene 84A)	DRSC12594	90100	81795	64725	54300	5360	inactive
ninaB (neither inactivation nor afterpotential B)	DRSC16807	2.01e5	2.07e5	2.13e5	2.24e5	16375	inactive
CG7110	DRSC03011	2.17e5	2.16e5	2.04e5	2.05e5	22735	inactive
CG7110	DRSC03012	1.29e5	1.49e5	1.51e5	1.48e5	12395	inactive
Xpc (Xeroderma pigmentosum, complementation group C)	DRSC07654	1.17e5	97530	2.02e5	2.29e5	10115	inactive
Cortactin	DRSC16612	1.83e5	1.97e5	2.15e5	2.33e5	15515	inactive
Tengl1 (Testis EndoG-Like 1)	DRSC00481	1.65e5	1.72e5	1.17e5	64875	11915	inactive
Sf3b1 (Splicing factor 3b subunit 1)	DRSC00535	63110	54575	65810	51825	2805	inactive
